In paper PMC8240438:
Results are given in words; binding and its absence hold for the method and conditions named. Binding seen in cells or lysates may run through a third protein. Some binding calls cover weakened binding; strength is not graded here. Tags and fused reporters may be left off the sequences shown.

Amino acid sequences for entries named in this document (tags omitted).
UniProt Q9H0J9: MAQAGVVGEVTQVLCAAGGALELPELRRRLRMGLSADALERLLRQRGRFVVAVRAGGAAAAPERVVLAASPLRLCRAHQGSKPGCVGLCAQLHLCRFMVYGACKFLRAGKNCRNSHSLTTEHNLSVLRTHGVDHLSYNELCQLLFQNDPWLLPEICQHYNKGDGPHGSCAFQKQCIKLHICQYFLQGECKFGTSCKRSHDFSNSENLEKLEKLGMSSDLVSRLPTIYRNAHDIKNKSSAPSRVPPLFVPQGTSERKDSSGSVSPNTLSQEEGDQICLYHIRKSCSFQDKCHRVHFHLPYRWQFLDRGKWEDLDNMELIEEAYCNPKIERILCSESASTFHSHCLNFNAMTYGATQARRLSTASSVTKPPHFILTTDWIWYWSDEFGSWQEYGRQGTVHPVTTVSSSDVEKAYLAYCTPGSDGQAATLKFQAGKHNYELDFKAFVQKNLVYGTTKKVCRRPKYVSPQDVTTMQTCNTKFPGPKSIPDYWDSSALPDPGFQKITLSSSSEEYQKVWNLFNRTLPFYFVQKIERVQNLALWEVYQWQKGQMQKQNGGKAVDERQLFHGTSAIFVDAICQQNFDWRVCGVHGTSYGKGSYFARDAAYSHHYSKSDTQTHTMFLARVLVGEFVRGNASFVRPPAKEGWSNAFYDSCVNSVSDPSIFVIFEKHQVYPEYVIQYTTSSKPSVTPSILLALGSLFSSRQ

Legend:
HA-PARP12 = HA-PARP12 (UniProt Q9H0J9); assay: co-IP; HEK293T cells co-transfected with the tagged plasmids; extracted 30 h after transfection in 50 mM tris-HCl pH 7.5, 150 mM NaCl, 5 mM EDTA, 1% Triton-X100; immunoprecipitated with Sepharose beads bound to anti-Flag, anti-HA, anti-His or anti-GFP antibodies at 4 °C overnight; washed four times (0.2% Triton-X100); Western blotting
GFP-PARP12 = GFP-PARP12 (UniProt Q9H0J9); assay: as above

Row | binding (HA-PARP12) | binding (GFP-PARP12) | Binder
1 | binds | – | EGFP-PARP11 WWE domain (domain or fragment, UniProt Q9NR21 22-106) NEVDDMDTSDTQWGWFYLAECGKWHMFQPDTNSQCSVSSEDIEKSFKTNPCGSISFTTSKFSYKIDFAEMKQMNLTTGKQRLIKR
2 | – | binds | Flag-PARP11 (protein, UniProt Q9NR21 1-338) MWEANPEMFHKAEELFSKTTNNEVDDMDTSDTQWGWFYLAECGKWHMFQPDTNSQCSVSSEDIEKSFKTNPCGSISFTTSKFSYKIDFAEMKQMNLTTGKQRLIKRAPFSISAFSYICENEAIPMPPHWENVNTQVPYQLIPLHNQTHEYNEVANLFGKTMDRNRIKRIQRIQNLDLWEFFCRKKAQLKKKRGVPQINEQMLFHGTSSEFVEAICIHNFDWRINGIHGAVFGKGTYFARDAAYSSRFCKDDIKHGNTFQIHGVSLQQRHLFRTYKSMFLARVLIGDYINGDSKYMRPPSKDGSYVNLYDSCVDDTWNPKIFVVFDANQIYPEYLIDFH
